Laboratory results: doi:10.1101/646075 (bioRxiv, 2019)
Like-named read-outs stand apart in the source and are kept apart here. These are yes or no findings as the source states them, for the method shown. Some binding calls cover weakened binding; strength is not graded here. Each block holds one molecule with its values, some of them ahead of it.

Amino acid sequences for entries named in this document (tags omitted). A change or cut given only in a name is not applied to a line headed by its entry. Chains listed by the source or under a name are the forms on record and can include a tag or linker. Residues count along the entry.
UniProt P02768, residues 25-609: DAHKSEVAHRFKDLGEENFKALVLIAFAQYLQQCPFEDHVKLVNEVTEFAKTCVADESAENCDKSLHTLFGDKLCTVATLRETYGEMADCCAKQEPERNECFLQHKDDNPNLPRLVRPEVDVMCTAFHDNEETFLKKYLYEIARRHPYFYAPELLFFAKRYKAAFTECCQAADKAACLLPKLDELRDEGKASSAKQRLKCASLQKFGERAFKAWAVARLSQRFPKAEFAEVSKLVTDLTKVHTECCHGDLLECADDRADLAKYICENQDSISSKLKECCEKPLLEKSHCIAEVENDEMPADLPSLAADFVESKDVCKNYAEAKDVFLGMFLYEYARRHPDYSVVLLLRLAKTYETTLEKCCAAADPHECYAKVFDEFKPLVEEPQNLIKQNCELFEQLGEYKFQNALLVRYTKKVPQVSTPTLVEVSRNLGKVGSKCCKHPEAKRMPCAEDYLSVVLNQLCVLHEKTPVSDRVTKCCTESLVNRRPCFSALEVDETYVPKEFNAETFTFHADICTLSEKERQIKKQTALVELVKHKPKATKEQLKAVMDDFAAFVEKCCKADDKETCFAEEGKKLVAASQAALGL
apo-transferrin (iron-unbound transferrin) (P02787, residues 20-698): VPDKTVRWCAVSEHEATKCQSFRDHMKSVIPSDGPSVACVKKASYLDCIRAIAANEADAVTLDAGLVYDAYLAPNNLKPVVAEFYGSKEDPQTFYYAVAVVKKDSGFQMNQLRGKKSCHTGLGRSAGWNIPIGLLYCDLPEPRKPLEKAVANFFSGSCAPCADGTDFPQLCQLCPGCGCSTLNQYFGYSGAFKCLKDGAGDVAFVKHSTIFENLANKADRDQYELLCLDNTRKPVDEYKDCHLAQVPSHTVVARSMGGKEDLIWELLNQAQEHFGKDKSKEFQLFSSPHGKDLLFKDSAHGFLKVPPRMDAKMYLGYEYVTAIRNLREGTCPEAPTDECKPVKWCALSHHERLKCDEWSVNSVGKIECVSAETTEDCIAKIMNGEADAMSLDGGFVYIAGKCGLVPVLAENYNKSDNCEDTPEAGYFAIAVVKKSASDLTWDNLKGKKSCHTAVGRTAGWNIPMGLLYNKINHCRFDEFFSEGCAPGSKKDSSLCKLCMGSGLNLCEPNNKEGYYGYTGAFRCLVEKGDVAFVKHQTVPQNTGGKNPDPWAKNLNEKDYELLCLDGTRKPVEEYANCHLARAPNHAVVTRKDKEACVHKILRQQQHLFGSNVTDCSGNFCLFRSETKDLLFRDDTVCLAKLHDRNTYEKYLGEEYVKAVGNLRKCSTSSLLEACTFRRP
Tf mutant (E333R and E338R) (P02787, form named): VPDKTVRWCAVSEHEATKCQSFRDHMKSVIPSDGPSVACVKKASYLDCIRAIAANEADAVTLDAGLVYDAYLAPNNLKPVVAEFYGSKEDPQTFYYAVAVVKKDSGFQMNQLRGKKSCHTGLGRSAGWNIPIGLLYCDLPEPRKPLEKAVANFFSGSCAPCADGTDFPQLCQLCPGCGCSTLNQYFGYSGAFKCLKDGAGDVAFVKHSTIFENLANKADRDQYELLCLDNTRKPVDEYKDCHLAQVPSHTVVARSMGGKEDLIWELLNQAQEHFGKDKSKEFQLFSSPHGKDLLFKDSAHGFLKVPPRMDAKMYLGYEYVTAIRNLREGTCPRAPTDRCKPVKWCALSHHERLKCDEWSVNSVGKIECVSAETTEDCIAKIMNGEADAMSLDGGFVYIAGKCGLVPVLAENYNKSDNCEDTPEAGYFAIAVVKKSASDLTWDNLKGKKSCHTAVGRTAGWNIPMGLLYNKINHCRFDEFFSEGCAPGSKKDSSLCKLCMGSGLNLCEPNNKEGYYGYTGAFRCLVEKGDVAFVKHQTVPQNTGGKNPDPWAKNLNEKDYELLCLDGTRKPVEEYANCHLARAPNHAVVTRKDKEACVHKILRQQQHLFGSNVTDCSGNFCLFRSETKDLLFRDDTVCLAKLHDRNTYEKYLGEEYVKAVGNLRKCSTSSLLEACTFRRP
UniProt P01008, residues 33-464: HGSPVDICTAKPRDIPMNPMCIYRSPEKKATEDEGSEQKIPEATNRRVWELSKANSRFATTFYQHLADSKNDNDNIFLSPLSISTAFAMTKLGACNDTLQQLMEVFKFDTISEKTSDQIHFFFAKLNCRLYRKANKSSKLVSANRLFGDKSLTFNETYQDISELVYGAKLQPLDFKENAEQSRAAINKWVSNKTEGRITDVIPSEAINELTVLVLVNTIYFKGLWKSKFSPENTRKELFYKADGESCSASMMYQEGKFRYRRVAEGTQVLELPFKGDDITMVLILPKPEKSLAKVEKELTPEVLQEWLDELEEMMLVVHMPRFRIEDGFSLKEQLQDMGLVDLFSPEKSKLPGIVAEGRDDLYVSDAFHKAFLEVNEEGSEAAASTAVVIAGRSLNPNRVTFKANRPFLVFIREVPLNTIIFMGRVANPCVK

How the values were obtained:
Assay in all cases: SPR
[1] = biological target: human serum albumin (human) (UniProt P02768)
[2] = biological target: apo-transferrin (iron-unbound transferrin) (human) (UniProt P02787)
[3] = biological target: Tf mutant (E333R and E338R) (human) (UniProt P02787)
[4] = biological target: human serum albumin (human) (UniProt P02768); remark: listed apart in the source

binding [1]: no binding
Molecule: antithrombin III (from UniProt P01008 33-464)

binding [2]: no binding
Molecule: SCPTHYSRQRCRNAVLER [FX18-scr (scrambled control of FX18)]

binding [3]: binds weakly | binding [4]: no binding
B1: human α-FXIIa (enzyme)
chain 1: IPPWEAPKEHKYKAEEHTVVLTVTGEPCHFPFQYHRQLYHKCTHKGRPGPQPWCATTPNFDQDQRWGYCLEPKKVKDHCSKHSPCQKGGTCVNMPSGPHCLCPQHLTGNHCQKEKCFEPQLLRFFHKNEIWYRTEQAAVARCQCKGPDAHCQRLASQACRTNPCLHGGRCLEVEGHRLCHCPVGYTGAFCDVDTKASCYDGRGLSYRGLARTTLSGAPCQPWASEATYRNVTAEQARNWGLGGHAFCRNPDNDIRPWCFVLNRDRLSWEYCDLAQCQTPTQAAPPTPVSPRLHVPLMPAQPAPPKPQPTTRTPPQSQTPGALPAKREQPPSLTRNGPLSCGQRLRKSLSSMTR
chain 2: VVGGLVALRGAHPYIAALYWGHSFCAGSLIAPCWVLTAAHCLQDRPAPEDLTVVLGQERRNHSCEPCQTLAVRSYRLHEAFSPVSYQHDLALLRLQEDADGSCALLSPYVQPVCLPSGAARPSETTLCQVAGWGHQFEGAEEYASFLQEAQVPFLSLERCSAPDVHGSSILPGMLCAGFLEGGTDACQGDSGGPLVCEDQAAERRLTLQGIISWGSGCGDRNKPGVYTDVAYYLAWIREHTVS

binding [2]: no binding
Molecule: RKKGIRRYTERHSNIE [TH16-scr (scrambled control of TH16)]
